Test results: paper PMC10020456
These are yes or no findings as the source states them, for the method shown. In cells and extracts the contact can be indirect. Some binding calls cover weakened binding; strength is not graded here. Tags and fused reporters may be left off the sequences shown.

Amino acid sequences for entries named in this document (tags omitted).
UniProt P52480: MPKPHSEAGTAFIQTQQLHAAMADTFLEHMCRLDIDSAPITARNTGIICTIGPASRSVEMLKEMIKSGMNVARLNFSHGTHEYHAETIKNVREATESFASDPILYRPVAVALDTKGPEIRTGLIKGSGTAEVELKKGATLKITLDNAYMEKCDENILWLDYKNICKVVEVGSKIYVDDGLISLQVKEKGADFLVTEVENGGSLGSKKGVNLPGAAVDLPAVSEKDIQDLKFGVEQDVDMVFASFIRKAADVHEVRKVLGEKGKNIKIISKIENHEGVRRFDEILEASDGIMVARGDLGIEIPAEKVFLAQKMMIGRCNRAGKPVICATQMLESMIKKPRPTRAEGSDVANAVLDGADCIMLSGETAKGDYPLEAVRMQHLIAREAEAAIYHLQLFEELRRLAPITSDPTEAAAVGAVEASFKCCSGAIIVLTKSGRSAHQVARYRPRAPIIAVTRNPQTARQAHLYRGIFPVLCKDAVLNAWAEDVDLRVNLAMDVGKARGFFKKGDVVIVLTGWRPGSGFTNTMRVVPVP

Key:
[1] = molecular target: T1, C-terminal deletion mutant form of IgSF11 (IgSF11-Mt353), C-terminally FLAG-tagged (UniProt P0C673); assay: co-IP; IgSF11-/- BMMs retrovirally transduced with C-terminally Flag-tagged IgSF11-FL or IgSF11-Mt353, lysed, immunoprecipitated with anti-Flag antibodies, western blotting for PKM2
T1 sequence: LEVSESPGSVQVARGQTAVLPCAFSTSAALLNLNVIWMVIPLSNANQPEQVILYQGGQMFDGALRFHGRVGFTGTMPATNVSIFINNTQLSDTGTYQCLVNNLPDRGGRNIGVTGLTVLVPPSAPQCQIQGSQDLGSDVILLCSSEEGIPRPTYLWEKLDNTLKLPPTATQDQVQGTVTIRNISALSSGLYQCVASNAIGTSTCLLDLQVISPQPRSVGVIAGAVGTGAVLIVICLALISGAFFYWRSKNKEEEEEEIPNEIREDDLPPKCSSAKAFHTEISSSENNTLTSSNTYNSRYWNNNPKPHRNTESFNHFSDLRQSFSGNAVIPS

[2] = molecular target: T2, full-length IgSF11 (immunoglobulin superfamily 11), C-terminally FLAG-tagged (UniProt P0C673); assay: as above
T2 sequence: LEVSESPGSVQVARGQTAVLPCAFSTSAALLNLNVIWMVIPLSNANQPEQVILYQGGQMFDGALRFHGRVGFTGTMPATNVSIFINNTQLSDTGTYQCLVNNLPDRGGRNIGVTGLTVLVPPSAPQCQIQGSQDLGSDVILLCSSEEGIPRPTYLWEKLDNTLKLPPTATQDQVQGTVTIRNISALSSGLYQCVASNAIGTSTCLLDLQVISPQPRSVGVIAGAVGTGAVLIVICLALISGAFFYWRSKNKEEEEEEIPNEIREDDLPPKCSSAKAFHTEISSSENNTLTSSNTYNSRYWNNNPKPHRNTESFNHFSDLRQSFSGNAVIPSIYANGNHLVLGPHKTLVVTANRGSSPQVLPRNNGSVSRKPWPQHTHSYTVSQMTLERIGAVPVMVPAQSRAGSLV

Substance: pyruvate kinase M isoform 2 (PKM2) (from UniProt P52480 1-531) (enzyme)
- binding [1]: binds weakly
- binding [2]: binds
